Experimental data from article PMC9479574.
No constants are given. Whether binding was seen depends on the method and setting. For some of these results: In cells and extracts the contact can be indirect. Some results given as binding are weak or reduced against the parent protein; the word gives no strength. For some of these results: Where a sequence is shown, tags or fusion partners need not be part of it.

Experiments:
[1] = molecular target: T1, SPTLC1^FLAG F40S41del variant (ALS) (human) (UniProt O15269); assay: co-IP; FLAG immunoprecipitation (anti-FLAG magnetic M2 beads, 3 hours) of SPTLC1^FLAG and variants from 20,000g membrane fractions solubilized with digitonin (1% wt/vol; 50 mM Tris pH 7.4, 150 mM NaCl, 20 mM MgCl2); eluates immunoblotted for SPTLC2 and ORMDLs
T1 sequence: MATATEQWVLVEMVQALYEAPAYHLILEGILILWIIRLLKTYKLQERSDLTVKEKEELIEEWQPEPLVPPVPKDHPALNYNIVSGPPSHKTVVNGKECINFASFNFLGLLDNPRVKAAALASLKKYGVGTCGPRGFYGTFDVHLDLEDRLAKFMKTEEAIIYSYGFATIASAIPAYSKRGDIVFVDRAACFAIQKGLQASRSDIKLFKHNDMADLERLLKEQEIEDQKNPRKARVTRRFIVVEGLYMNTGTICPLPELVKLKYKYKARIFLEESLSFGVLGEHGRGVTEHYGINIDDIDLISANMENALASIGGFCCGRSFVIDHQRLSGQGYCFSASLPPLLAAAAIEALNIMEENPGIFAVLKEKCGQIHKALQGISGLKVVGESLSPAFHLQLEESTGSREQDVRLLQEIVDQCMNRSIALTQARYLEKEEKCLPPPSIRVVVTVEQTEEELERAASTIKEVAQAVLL

[2] = molecular target: T2, SPTLC1^FLAG S331F variant (HSAN1) (human) (UniProt O15269); assay: as above
T2 sequence: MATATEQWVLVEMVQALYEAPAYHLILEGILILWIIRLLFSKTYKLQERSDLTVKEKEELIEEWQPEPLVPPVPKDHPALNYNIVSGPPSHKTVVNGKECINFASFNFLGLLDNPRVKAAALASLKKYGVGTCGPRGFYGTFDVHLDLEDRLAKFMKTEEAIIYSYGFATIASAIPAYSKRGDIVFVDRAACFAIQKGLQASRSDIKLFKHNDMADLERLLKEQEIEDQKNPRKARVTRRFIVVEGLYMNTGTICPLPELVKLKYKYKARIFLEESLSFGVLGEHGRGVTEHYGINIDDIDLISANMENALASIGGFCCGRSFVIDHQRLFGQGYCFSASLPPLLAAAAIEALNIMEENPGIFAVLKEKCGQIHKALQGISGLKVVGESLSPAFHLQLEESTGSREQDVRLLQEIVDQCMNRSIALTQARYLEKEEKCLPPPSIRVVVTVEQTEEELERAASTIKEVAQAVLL

[3] = molecular target: T3, SPTLC1^FLAG Y23F variant (ALS) (human) (UniProt O15269); assay: as above
T3 sequence: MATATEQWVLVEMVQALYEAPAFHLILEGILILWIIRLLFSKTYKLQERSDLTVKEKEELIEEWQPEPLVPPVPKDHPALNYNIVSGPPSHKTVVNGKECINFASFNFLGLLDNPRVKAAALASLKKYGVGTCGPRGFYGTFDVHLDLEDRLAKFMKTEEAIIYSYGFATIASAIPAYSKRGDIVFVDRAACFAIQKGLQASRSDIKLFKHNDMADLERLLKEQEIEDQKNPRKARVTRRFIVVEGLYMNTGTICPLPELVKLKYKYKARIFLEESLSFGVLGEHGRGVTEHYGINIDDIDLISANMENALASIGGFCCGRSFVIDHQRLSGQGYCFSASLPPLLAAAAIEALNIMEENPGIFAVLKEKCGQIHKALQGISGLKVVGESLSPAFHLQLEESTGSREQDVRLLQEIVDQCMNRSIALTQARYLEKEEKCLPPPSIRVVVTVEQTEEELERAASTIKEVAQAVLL

[4] = molecular target: T4, SPTLC1^FLAG L39del variant (ALS) (human) (UniProt O15269); assay: as above
T4 sequence: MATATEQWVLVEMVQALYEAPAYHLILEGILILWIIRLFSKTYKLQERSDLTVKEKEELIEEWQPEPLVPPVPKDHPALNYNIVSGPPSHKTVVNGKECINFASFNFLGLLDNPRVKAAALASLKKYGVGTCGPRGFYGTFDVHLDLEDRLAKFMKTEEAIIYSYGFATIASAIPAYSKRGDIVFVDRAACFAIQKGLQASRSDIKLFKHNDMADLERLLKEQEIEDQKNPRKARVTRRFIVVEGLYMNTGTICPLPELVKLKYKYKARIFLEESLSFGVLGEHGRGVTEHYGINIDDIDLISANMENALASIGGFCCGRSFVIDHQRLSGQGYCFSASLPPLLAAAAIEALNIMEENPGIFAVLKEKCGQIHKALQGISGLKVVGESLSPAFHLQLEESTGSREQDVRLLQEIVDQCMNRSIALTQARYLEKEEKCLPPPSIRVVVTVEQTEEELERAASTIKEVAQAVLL

[5] = molecular target: T5, WT-SPTLC1^FLAG (SPTLC1 with a C-terminal triple FLAG-tag) (human) (UniProt O15269); assay: as above
T5 sequence: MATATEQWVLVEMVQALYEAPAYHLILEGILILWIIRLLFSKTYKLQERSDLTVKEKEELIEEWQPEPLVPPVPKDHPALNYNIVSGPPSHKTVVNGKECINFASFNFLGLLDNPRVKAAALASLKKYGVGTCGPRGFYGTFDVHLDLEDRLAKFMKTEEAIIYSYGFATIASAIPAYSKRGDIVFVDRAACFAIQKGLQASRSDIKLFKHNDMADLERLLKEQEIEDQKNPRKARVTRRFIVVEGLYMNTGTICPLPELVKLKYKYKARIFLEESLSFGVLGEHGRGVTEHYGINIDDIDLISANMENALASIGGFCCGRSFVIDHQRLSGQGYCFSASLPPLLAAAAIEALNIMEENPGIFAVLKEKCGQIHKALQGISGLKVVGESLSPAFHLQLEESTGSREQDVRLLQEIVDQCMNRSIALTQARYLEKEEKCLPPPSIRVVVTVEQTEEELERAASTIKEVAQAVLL

[6] = molecular target: T6, SPTLC1^FLAG C133W variant (HSAN1) (human) (UniProt O15269); assay: as above
T6 sequence: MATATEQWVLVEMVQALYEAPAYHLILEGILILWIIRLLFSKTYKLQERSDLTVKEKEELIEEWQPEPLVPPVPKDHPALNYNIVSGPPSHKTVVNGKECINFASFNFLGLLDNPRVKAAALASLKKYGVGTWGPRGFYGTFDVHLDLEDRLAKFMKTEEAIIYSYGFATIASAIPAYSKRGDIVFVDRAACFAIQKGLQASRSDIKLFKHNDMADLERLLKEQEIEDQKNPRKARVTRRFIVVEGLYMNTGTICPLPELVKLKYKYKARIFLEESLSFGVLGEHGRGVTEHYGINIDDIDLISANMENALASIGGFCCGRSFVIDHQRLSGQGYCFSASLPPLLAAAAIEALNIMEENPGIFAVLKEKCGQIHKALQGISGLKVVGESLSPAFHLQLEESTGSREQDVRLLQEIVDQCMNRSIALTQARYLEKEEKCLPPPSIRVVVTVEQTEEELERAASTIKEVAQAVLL

[7] = molecular target: T1, SPTLC1^FLAG F40S41del variant (ALS) (human); assay: native gel or EMSA; blue native PAGE (4%-13% gradient gel) of 20,000g membrane fractions solubilized with 4 g digitonin/g protein; immunoblotted with anti-SPTLC1, anti-SPTLC2 and anti-ORMDL antibodies
[8] = molecular target: T2, SPTLC1^FLAG S331F variant (HSAN1) (human); assay: as above
[9] = molecular target: T3, SPTLC1^FLAG Y23F variant (ALS) (human); assay: as above
[10] = molecular target: T7, SPTLC1 (endogenous) (human (endogenous in Flp-In T-REx 293)) (UniProt O15269); assay: as above
T7 sequence: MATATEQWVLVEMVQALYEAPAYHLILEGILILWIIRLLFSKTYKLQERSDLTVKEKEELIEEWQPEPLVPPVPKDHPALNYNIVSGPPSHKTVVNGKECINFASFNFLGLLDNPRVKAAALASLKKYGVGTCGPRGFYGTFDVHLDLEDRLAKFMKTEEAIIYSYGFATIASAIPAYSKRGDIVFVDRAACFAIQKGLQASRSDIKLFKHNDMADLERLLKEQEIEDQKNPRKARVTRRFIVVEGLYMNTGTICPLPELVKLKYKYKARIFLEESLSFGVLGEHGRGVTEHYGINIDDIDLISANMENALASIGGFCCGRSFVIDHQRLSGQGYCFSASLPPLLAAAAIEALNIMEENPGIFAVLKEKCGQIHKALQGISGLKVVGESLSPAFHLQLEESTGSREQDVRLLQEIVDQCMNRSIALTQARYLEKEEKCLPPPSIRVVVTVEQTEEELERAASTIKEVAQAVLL

[11] = molecular target: T4, SPTLC1^FLAG L39del variant (ALS) (human); assay: as above
[12] = molecular target: T5, WT-SPTLC1^FLAG (SPTLC1 with a C-terminal triple FLAG-tag) (human); assay: as above
[13] = molecular target: T6, SPTLC1^FLAG C133W variant (HSAN1) (human); assay: as above

Measured: binding

B1: SPTLC2 (protein, UniProt O15270 1-562)
chain: MRPEPGGCCCRRTVRANGCVANGEVRNGYVRSSAAAAAAAAAGQIHHVTQNGGLYKRPFNEAFEETPMLVAVLTYVGYGVLTLFGYLRDFLRYWRIEKCHHATEREEQKDFVSLYQDFENFYTRNLYMRIRDNWNRPICSVPGARVDIMERQSHDYNWSFKYTGNIIKGVINMGSYNYLGFARNTGSCQEAAAKVLEEYGAGVCSTRQEIGNLDKHEELEELVARFLGVEAAMAYGMGFATNSMNIPALVGKGCLILSDELNHASLVLGARLSGATIRIFKHNNMQSLEKLLKDAIVYGQPRTRRPWKKILILVEGIYSMEGSIVRLPEVIALKKKYKAYLYLDEAHSIGALGPTGRGVVEYFGLDPEDVDVMMGTFTKSFGASGGYIGGKKELIDYLRTHSHSAVYATSLSPPVVEQIITSMKCIMGQDGTSLGKECVQQLAENTRYFRRRLKEMGFIIYGNEDSPVVPLMLYMPAKIGAFGREMLKRNIGVVVVGFPATPIIESRARFCLSAAHTKEILDTALKEIDEVGDLLQLKYSRHRLVPLLDRPFDETTYEETED
binds: [1] | [2] | [3] | [4] | [5] | [6] | [7] | [8] | [9] | [10] | [11] | [12] | [13]
